The text below walks through data of paper PMC12860897.

The chains behind the UniProt entries cited, without tags or fusion partners.
UniProt P19785: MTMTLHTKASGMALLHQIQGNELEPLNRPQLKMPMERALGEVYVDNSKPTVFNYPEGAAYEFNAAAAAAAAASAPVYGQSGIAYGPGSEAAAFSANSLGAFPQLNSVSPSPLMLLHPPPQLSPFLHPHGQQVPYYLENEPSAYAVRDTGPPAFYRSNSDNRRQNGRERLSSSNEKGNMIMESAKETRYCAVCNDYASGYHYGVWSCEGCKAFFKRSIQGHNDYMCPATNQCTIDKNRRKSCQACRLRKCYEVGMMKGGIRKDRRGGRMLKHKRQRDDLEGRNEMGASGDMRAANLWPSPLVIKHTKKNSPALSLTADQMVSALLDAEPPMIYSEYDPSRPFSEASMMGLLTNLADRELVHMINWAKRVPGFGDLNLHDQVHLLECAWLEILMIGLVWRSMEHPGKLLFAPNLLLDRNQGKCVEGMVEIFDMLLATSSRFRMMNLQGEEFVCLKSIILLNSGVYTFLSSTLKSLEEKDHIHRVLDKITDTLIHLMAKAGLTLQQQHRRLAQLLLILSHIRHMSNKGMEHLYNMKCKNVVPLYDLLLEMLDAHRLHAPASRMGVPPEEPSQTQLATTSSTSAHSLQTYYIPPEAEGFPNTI

This assay deals with Estrogen receptor (ER) α, endogenous in mouse CD11b+ bone marrow cells (mouse (endogenous in CD11b+ BMCs)) (UniProt P19785). The assay can be described thus: affinity purification with mass spectrometry; immunoprecipitation with an ERα antibody from CD11b+ BMCs of sham and OVX mice (6 weeks after OVX); SDS gel bands digested with trypsin, LC-MS/MS (LTQ-Orbitrap Velos), Mascot.

Results are given in words; binding and its absence hold for the method and conditions named. Binding seen in cells or lysates may run through a third protein. A yes stands for co-enrichment or nearness to the bait. Other partners may have been found.

B1: 17β-hydroxysteroid dehydrogenase type 7 (HSD17B7), endogenous in mouse CD11b+ bone marrow cells (enzyme, UniProt O88736 1-334)
chain: MRKVVLITGASSGIGLALCGRLLAEDDDLHLCLACRNLSKARAVRDTLLASHPSAEVSIVQMDVSSLQSVVRGAEEVKQKFQRLDYLYLNAGILPNPQFNLKAFFCGIFSRNVIHMFTTAEGILTQNDSVTADGLQEVFETNLFGHFILIRELEPLLCHADNPSQLIWTSSRNAKKANFSLEDIQHSKGPEPYSSSKYATDLLNVALNRNFNQKGLYSSVMCPGVVMTNMTYGILPPFIWTLLLPIMWLLRFFVNALTVTPYNGAEALVWLFHQKPESLNPLTKYASATSGFGTNYVTGQKMDIDEDTAEKFYEVLLELEKRVRTTVQKSDHPS
On to B1, for which the binding result is given as “binds”.
